These are yes or no findings as the source states them, for the method shown. Some binding calls cover weakened binding; strength is not graded here.
target: proprotein convertase subtilisin/kexin type 9 (PCSK9) (human) (UniProt Q8NBP7); assay: SPR

Chains of the proteins cited; added tags and fusions are not shown. Lines headed by an entry give the natural chain unless they say otherwise; changes in a name come on top.
UniProt Q8NBP7: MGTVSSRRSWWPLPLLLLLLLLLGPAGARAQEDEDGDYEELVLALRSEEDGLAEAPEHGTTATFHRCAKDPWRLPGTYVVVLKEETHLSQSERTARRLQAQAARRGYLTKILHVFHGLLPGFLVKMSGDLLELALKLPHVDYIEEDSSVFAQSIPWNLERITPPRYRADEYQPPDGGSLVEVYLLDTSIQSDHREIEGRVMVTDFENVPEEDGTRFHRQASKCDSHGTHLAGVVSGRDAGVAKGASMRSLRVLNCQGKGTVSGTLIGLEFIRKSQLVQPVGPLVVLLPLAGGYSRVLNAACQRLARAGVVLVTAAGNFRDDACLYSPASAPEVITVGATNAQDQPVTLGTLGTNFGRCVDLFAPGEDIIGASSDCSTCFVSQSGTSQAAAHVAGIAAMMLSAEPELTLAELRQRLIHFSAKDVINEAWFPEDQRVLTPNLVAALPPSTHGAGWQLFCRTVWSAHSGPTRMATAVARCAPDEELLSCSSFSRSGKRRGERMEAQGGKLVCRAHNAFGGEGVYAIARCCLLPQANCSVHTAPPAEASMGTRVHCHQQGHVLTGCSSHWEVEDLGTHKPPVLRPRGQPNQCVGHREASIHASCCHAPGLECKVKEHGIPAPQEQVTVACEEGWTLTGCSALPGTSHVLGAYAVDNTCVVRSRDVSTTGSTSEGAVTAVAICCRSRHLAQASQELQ

Binder	binding
FCLWNLKRIGAQCWF (Ac-; -NH2; disulfide) [Compound 96]	binds
SGSGCRLPWNLQRIGLPC (FAM (5-carboxyfluorescein) at N-terminus; -NH2; disulfide) [Compound 34]	binds
SPCRVGYTPC (Ac-; -NH2) [Compound 23]	binds
DLMPWNLVRIGLAR (Ac-; -NH2) [Compound 55]	binds

Next, values leading:

binding	Binder
binds	SGSGCFIPWNLQRIGLLC (FAM (5-carboxyfluorescein) at N-terminus; -NH2; disulfide) [Compound 33]
binds	ALMPWNLVRIGLLR (Ac-; -NH2) [Compound 45]
binds	SGDLMPWNLVRIGLLR [Compound 28]

target: proprotein convertase subtilisin/kexin type 9 (PCSK9) (human) (UniProt Q8NBP7); assay: phage spot ELISA

Binder	binding
SGCSDLWNLARIYPMC [SEQ ID NO 391]	binds
SGCFIPWNLQRIGLLC [SEQ ID NO 383]	binds
SGACVKPCIAGNIIR [SEQ ID NO 388]	binds

The remaining lines, values ahead:

binding	Binder
binds	SGDLMPWNLVRIGLLR [SEQ ID NO 389]
binds	SGGSMPWNLERIFALH [SEQ ID NO 390]
binds	SGDFIPWNLVRIGLLR [SEQ ID NO 385]
binds	SGCRLPWNLQRIGLPC [SEQ ID NO 386]
binds	SGGACPWNLERIGLSC [SEQ ID NO 384]

target: proprotein convertase subtilisin/kexin type 9 (PCSK9) (human) (UniProt Q8NBP7); assay: TR-FRET competition, EGF(A)-Fc as competitor

binding	Binder
binds	FCLWNLARIGSQCWF (Ac-; -NH2; disulfide) [Compound 88]

Source: patent US20200283478A1
